Laboratory results reported in US20160090556A1, “PRODUCTS COMPRISING MALODOR REDUCTION MATERIALS” (The Procter & Gamble Company, priority 2014, published 2016).

Experiment: Melamine formaldehyde PMC leakage
Details: for Comment Code: Melamine formaldehyde PMC leakage: code letter J; for Melamine formaldehyde PMC leakage (Comment Code J): class code letter within Comment Code

Compound	Comment Code: Melamine formaldehyde PMC leakage	Melamine formaldehyde PMC leakage (Comment Code J)
C=CC(C)(CCC=C(C)C)OC(C)=O (stereo not shown) [Material 154]	J (Melamine formaldehyde PMC leakage less than or equal to 5%)	–
CCC(C)=CCCC(C)=CC#N [Material 158]	–	J (Melamine formaldehyde PMC leakage less than or equal to 5%)
Cc1ccc2c(c1)CC(C)(CO)C2 (stereo not shown) [Material 161]	–	J (Melamine formaldehyde PMC leakage less than or equal to 5%)
CC(C=O)Cc1ccc(C(C)(C)C)cc1 (stereo not shown) [Material 162]	–	J (Melamine formaldehyde PMC leakage less than or equal to 5%)
CC/C=C/CCOC(CC)OC (stereo not shown) [Material 167]	–	J (Melamine formaldehyde PMC leakage less than or equal to 5%)
CCCCCCCCCCCCO [Material 174]	–	J (Melamine formaldehyde PMC leakage less than or equal to 5%)
CCCCCCCCCCCCOC(C)=O [Material 175]	–	J (Melamine formaldehyde PMC leakage less than or equal to 5%)
CCCCCCCCCCCC(=O)O [Material 176]	–	J (Melamine formaldehyde PMC leakage less than or equal to 5%)
CCCCCCCCCCCC=O [Material 178]	–	J (Melamine formaldehyde PMC leakage less than or equal to 5%)
C=C1[C@H]2CC[C@H](CO)[C@@]23CC[C@H](C3)C1(C)C [Material 183]	J (Melamine formaldehyde PMC leakage less than or equal to 5%)	J (Melamine formaldehyde PMC leakage less than or equal to 5%)
CCC(C)C1(C)COC(C2CCC(C)=CC2C)OC1 (stereo not shown) [Material 184]	–	J (Melamine formaldehyde PMC leakage less than or equal to 5%)
CC1(CO)CC1CC1CC2CC2(C)C1(C)C (stereo not shown) [Material 185]	J (Melamine formaldehyde PMC leakage less than or equal to 5%)	J (Melamine formaldehyde PMC leakage less than or equal to 5%)
CCCCCCC1CCCC1=O (stereo not shown) [Material 189]	–	J (Melamine formaldehyde PMC leakage less than or equal to 5%)
CCCCCCCCCCCCCCCC(=O)OC(C)C [Material 195]	–	J (Melamine formaldehyde PMC leakage less than or equal to 5%)
CCCCCCCCCCCCCC(=O)OC(C)C [Material 196]	–	J (Melamine formaldehyde PMC leakage less than or equal to 5%)
CCCCCCCCCCCC(=O)OC(C)C [Material 197]	–	J (Melamine formaldehyde PMC leakage less than or equal to 5%)
COc1c2ccoc2c(OC)c2oc(=O)ccc12 [Material 199]	J (Melamine formaldehyde PMC leakage less than or equal to 5%)	J (Melamine formaldehyde PMC leakage less than or equal to 5%)
CC(=O)OCCCCCCC(C)C [Material 204]	J (Melamine formaldehyde PMC leakage less than or equal to 5%)	–
CC1CCCCCCCCCCCCC(=O)C1 (stereo not shown) [Material 206]	J (Melamine formaldehyde PMC leakage less than or equal to 5%)	J (Melamine formaldehyde PMC leakage less than or equal to 5%)
CC1CCC(C(C)C)C(=O)C1 (stereo not shown) [Material 208]	–	J (Melamine formaldehyde PMC leakage less than or equal to 5%)
CCCCCCC1=CCCC1=O [Material 209]	–	J (Melamine formaldehyde PMC leakage less than or equal to 5%)
CC1CCC(C(C)C)C(=O)C1 (stereo not shown) [Material 210]	–	J (Melamine formaldehyde PMC leakage less than or equal to 5%)

Compound	Comment Code: Melamine formaldehyde PMC leakage	Melamine formaldehyde PMC leakage (Comment Code J)
CC(C)=CCCC1=CCC(C=O)CC1 (stereo not shown) [Material 211]	–	J (Melamine formaldehyde PMC leakage less than or equal to 5%)
CC=Cc1ccc(OCc2ccccc2)c(OC)c1 [Material 212]	J (Melamine formaldehyde PMC leakage less than or equal to 5%)	J (Melamine formaldehyde PMC leakage less than or equal to 5%)
CC=Cc1ccc(OC(C)=O)c(OC)c1 [Material 213]	J (Melamine formaldehyde PMC leakage less than or equal to 5%)	–
CC(=O)[C@@]1(C)CC2=C(CCCC2(C)C)C[C@@H]1C [Material 215]	J (Melamine formaldehyde PMC leakage less than or equal to 5%)	J (Melamine formaldehyde PMC leakage less than or equal to 5%)
CCC(C)c1ccc2ncccc2c1 (stereo not shown) [Material 221]	–	J (Melamine formaldehyde PMC leakage less than or equal to 5%)
CC1C2CC(CC2C2CCC(O)CC2)C1(C)C (stereo not shown) [Material 230]	J (Melamine formaldehyde PMC leakage less than or equal to 5%)	J (Melamine formaldehyde PMC leakage less than or equal to 5%)
C=CCCCCCCCCC(=O)OCCC(C)C [Material 234]	–	J (Melamine formaldehyde PMC leakage less than or equal to 5%)
CCCCCCCC(=O)OCCC(C)C [Material 237]	J (Melamine formaldehyde PMC leakage less than or equal to 5%)	–
CCCCCCCCCCCC(=O)OCCC(C)C [Material 238]	–	J (Melamine formaldehyde PMC leakage less than or equal to 5%)
O=C1CCCCCCCC=CCCCCCCO1 [Material 242]	–	J (Melamine formaldehyde PMC leakage less than or equal to 5%)
CC(CCCC(C)(C)O)CC(c1c[nH]c2ccccc12)c1c[nH]c2ccccc12 (stereo not shown) [Material 244]	–	J (Melamine formaldehyde PMC leakage less than or equal to 5%)
c1ccc2c(c1)CC1COCOC21 (stereo not shown) [Material 247]	–	J (Melamine formaldehyde PMC leakage less than or equal to 5%)
CC1(C)C2=C(CO)CCC(C)(C)C23CCC1C3 (stereo not shown) [Material 248]	J (Melamine formaldehyde PMC leakage less than or equal to 5%)	–
CC(CO)C1CCCCCCCCCCC1 (stereo not shown) [Material 252]	–	J (Melamine formaldehyde PMC leakage less than or equal to 5%)
COC(OC)C(C)c1ccccc1 (stereo not shown) [Material 256]	–	J (Melamine formaldehyde PMC leakage less than or equal to 5%)
CC1(C)CCc2ccc(CCC=O)cc21 [Material 260]	J (Melamine formaldehyde PMC leakage less than or equal to 5%)	J (Melamine formaldehyde PMC leakage less than or equal to 5%)
CC1(C)CCc2ccc(CCC=O)cc21 [Material 261]	J (Melamine formaldehyde PMC leakage less than or equal to 5%)	J (Melamine formaldehyde PMC leakage less than or equal to 5%)
CCCCCCCC(=O)OCCCCCC [Material 263]	–	J (Melamine formaldehyde PMC leakage less than or equal to 5%)
CCCCCCOC(=O)CCCCC [Material 267]	–	J (Melamine formaldehyde PMC leakage less than or equal to 5%)
CCCCCCC(C=O)=Cc1ccccc1 [Material 269]	–	J (Melamine formaldehyde PMC leakage less than or equal to 5%)
CCCCCCOC(=O)CCC [Material 270]	J (Melamine formaldehyde PMC leakage less than or equal to 5%)	–
